Reference: PMC11377572
These are yes or no findings as the source states them, for the method shown. In cells and extracts the contact can be indirect. Some entries that bind do so weakly or less than the wild type.

By UniProt entry, the sequences of proteins in these tests, tags left out.
UniProt Q6A4J8: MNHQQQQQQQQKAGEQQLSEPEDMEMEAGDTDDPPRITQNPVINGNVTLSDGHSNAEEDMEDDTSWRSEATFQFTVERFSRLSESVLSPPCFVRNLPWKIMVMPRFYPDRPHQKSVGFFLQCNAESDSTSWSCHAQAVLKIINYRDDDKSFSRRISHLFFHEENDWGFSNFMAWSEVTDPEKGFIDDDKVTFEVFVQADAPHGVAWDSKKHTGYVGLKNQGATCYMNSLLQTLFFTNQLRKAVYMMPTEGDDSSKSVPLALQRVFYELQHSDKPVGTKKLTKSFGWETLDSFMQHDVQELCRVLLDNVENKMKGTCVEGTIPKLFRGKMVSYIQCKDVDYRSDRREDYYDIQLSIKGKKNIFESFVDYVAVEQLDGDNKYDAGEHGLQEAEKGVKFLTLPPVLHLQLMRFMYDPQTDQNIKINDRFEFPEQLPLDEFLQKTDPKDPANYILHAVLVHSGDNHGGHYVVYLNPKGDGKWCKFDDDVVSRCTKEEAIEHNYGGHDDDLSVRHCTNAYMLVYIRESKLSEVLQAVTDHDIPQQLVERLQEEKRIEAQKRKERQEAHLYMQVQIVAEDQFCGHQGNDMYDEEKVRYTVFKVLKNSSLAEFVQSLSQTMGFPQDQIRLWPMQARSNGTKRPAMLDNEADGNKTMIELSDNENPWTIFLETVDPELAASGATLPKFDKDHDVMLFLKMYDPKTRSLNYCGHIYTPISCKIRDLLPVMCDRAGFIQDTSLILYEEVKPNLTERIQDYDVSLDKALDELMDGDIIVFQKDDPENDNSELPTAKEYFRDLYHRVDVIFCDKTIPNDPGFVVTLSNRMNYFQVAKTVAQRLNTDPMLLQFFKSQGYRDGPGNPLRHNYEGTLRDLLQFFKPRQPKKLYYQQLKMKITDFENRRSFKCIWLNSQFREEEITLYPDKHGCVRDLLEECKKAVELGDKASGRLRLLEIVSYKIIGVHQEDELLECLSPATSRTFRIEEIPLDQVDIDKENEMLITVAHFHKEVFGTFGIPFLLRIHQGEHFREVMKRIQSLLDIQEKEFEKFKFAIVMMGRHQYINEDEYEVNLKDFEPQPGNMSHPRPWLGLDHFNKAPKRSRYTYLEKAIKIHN
UniProt O09106: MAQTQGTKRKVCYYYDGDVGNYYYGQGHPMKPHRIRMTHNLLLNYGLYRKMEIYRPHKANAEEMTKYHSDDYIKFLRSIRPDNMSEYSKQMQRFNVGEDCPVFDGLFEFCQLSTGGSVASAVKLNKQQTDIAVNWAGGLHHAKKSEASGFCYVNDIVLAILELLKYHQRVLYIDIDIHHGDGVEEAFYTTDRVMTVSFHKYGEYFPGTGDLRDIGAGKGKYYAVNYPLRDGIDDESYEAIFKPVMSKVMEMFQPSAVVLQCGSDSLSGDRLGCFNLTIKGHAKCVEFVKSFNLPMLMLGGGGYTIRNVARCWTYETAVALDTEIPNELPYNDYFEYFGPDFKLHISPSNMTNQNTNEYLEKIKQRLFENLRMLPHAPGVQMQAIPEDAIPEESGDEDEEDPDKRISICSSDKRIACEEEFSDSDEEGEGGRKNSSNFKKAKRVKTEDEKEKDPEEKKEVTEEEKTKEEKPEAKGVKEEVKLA
UniProt Q8CFE3: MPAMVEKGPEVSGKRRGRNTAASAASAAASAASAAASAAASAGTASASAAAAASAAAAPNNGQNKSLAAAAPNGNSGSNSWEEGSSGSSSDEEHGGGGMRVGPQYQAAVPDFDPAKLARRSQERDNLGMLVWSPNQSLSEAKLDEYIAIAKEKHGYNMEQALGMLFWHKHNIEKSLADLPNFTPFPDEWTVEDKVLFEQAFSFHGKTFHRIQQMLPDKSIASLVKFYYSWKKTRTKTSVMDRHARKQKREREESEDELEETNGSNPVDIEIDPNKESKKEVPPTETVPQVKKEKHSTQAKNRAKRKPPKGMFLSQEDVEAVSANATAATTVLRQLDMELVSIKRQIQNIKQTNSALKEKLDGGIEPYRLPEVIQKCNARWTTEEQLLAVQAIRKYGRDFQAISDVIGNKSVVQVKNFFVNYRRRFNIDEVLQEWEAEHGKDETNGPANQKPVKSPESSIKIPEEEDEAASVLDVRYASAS
UniProt Q8C796: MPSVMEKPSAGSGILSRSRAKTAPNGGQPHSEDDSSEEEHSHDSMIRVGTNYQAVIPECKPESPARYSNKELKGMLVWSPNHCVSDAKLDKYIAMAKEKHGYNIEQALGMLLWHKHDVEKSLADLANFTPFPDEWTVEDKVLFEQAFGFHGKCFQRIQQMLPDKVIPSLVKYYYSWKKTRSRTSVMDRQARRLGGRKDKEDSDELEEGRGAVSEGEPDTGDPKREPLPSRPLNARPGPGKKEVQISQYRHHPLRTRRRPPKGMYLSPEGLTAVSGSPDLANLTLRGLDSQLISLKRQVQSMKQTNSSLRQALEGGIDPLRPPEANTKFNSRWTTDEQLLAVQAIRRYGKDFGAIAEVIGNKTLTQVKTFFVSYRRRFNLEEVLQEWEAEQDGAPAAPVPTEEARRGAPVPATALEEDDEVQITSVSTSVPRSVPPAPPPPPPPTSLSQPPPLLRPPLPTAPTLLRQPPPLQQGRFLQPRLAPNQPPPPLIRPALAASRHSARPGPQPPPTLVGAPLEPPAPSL
UniProt P13864: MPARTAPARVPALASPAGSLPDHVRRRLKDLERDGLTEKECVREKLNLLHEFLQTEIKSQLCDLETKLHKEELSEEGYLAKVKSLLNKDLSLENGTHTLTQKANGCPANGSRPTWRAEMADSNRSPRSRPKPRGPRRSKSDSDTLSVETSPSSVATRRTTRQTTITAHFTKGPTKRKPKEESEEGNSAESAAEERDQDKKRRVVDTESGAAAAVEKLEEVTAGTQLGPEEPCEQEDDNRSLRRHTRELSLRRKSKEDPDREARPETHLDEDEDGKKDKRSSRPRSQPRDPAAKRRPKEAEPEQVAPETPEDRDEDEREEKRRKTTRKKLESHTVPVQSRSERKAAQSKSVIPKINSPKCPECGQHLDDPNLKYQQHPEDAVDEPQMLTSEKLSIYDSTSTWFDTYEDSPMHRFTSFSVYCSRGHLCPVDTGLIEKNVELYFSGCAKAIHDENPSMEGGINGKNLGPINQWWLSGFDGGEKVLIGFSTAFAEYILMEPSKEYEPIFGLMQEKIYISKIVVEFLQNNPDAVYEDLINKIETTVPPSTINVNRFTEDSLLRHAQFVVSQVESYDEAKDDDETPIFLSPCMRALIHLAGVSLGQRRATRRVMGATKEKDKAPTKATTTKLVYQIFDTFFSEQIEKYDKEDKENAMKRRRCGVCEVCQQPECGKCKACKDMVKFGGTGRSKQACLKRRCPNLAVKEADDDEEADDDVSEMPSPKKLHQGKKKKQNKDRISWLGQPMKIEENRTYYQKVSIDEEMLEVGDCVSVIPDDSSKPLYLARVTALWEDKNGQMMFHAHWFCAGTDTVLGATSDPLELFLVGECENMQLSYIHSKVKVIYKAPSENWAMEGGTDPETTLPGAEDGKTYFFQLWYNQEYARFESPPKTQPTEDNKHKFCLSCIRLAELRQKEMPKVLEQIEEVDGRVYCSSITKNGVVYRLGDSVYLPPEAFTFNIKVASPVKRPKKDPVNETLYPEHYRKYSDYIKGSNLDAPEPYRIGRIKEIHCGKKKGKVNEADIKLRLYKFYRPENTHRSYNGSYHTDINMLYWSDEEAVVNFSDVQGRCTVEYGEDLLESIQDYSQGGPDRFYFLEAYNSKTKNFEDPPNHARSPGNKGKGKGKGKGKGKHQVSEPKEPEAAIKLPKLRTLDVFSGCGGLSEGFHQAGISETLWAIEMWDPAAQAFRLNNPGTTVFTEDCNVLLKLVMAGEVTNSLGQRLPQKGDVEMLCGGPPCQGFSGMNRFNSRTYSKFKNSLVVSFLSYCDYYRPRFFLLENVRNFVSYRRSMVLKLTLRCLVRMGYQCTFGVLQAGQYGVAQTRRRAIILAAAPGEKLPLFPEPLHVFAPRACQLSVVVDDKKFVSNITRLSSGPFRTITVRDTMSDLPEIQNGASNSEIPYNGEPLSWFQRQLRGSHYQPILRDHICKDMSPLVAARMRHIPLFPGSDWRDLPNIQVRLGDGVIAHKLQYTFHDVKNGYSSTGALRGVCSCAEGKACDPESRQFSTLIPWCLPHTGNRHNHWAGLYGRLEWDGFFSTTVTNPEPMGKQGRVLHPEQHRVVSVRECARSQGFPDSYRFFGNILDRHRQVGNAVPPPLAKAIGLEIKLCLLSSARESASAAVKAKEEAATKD

How the values were obtained:
[1] = target: ubiquitin-specific peptidase 7 (USP7), endogenous in mouse ESCs (mouse (endogenous in CCE mouse ESCs)) (UniProt Q6A4J8); assay: co-IP; USP7 immunoprecipitation from whole cell extract of Lsd1 KO mouse ESCs (DNMT1 and UHRF1 protein levels are low in these cells), immunoblots
[2] = target: HDAC1, endogenous in mouse ESCs (mouse (endogenous in CCE mouse ESCs)) (UniProt O09106); assay: co-IP; HDAC1 immunoprecipitation (anti-HDAC1, Abcam ab19845, 4 ug) from whole cell extract of WT mouse ESCs, immunoblots of DNMT1, UHRF1 and LSD1
[3] = target: RCOR1, endogenous in mouse ESCs (mouse (endogenous in CCE mouse ESCs)) (UniProt Q8CFE3); assay: co-IP; immunoprecipitation with RCOR1 (Novus NBP3-16225, 5 ug) or RCOR2 (Proteintech 23969-1-AP, 5 ug) antibodies from mouse ESC extract, immunoblots (Supplementary Fig. 9E, F)
[4] = target: RCOR2, endogenous in mouse ESCs (mouse (endogenous in CCE mouse ESCs)) (UniProt Q8C796); assay: as above
[5] = target: ubiquitin-specific peptidase 7 (USP7), endogenous in mouse ESCs (mouse (endogenous in CCE mouse ESCs)) (UniProt Q6A4J8); assay: co-IP; USP7 immunoprecipitation (anti-USP7, Invitrogen PA5-34911, 4 ug; protein A magnetic beads) from whole cell extract of WT, LSD1^WT and LSD1^MUT mouse ESCs, immunoblots; also with DNase or RNase treatment and after TSA or SAHA treatment of the cells

Row | binding [1] | binding [2] | binding [3] | binding [4] | binding [5] | Substance
1 | binds weakly | no binding | no binding | no binding | binds | DNA (cytosine-5)-methyltransferase 1 (DNMT1), endogenous in mouse ESCs (from UniProt P13864 1-1620)
2 |  |  | binds | binds |  | HDAC1, endogenous in mouse ESCs (from UniProt O09106 1-482) (enzyme)
